In paper PMC7819943, “Rice protein-binding microarrays: a tool to detect cis-acting elements near promoter regions in rice”:
Some of the results follow.

Sequences of proteins named here, by UniProt entry; tags and fusion partners are left off.
UniProt Q0JBA9, entry or part of it: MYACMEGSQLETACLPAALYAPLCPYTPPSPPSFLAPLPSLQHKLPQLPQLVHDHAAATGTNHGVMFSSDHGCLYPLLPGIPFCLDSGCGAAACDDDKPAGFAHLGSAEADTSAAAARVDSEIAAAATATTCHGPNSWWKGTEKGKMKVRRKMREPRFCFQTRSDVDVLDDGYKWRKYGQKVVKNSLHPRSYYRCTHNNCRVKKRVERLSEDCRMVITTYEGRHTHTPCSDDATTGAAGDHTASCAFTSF

target: OsWRKY34 (Oryza sativa, UniProt Q0JBA9 1-250); assay: protein-binding microarray (RPBM); PBS, 2% BSA, 51.3 ng/ul salmon testes DNA, 50 uM zinc acetate, 200 nM TF, 25 C, 1 h; high values mean tight binding; settings: protein: recombinant; tags: N-terminal polyhistidine and DsRed monomer fusion (pET32a); label: CyDye5-dUTP incorporated in the synthesized complementary strand; 3' TTTTT single-stranded linker to array surface; dsDNA, one strand shown
Procedure, shortened: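 An Axon 4000B scanner gave the binding signal as per-feature fluorescence intensity in arbitrary units. This followed washing of a custom Agilent array that had been incubated for 1 h at 25 °C with 200 nM protein in PBS, 2% BSA, salmon testes DNA and 50 µM zinc acetate. The proteins were transcription factors fused at the N-terminus to polyhistidine and DsRed, expressed in E. coli BL21-CodonPlus and purified on Ni–NTA.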

Sequence | binding signal
TTAAAATTTCCCGGTGTCATGTTGCAGGTTCTTCAGTCCACGGAGTCACCTAGTGCAG | 8950 fluorescence intensity (a.u.)
GAGAGACAATTGACTGGACTTTTGTCGTGTTGACCACAGCCGGAGTCACCTAGTGCAG | 9220 fluorescence intensity (a.u.)
GTGCATTGTATTGAGTGGCATTTTATCTTAACACAACCTACGGAGTCACCTAGTGCAG | 9570 fluorescence intensity (a.u.)
GGGTTCATTAATTTTCTTTTTACCTCATAGGGGAAACAAACGGAGTCACCTAGTGCAG | 8410 fluorescence intensity (a.u.)
TTTCTCTCCTTGCTCACCTGCGCCGCCGCACATCGCAACCCGGAGTCACCTAGTGCAG | 11200 fluorescence intensity (a.u.)
CTATATATGAACAAATTCCTGGCCATCTCTTTCCATTCTCCGGAGTCACCTAGTGCAG | 8470 fluorescence intensity (a.u.)
GCACGTTGTAGTAGATATTTTCCTTTCTCTGCTTACATAACGGAGTCACCTAGTGCAG | 9320 fluorescence intensity (a.u.)
TTGTGTTATTCATGTCATAATGTATTCATGCTCTTGGATTCGGAGTCACCTAGTGCAG | 9850 fluorescence intensity (a.u.)
GTTTGATTTTGTGCTGTTAATACCCTTTTTGCTTCAGGACCGGAGTCACCTAGTGCAG | 10400 fluorescence intensity (a.u.)
CGGGGCGGCTGGCTTGACGCGTCATCTTCCCCGCGAAAATCGGAGTCACCTAGTGCAG | 14000 fluorescence intensity (a.u.)
CTTTCCTGTGTCGTTTCTAACTTTCCATGCCGAAGTTATACGGAGTCACCTAGTGCAG | 12200 fluorescence intensity (a.u.)
TCATCTCTAGCTGGAATCACATCTCTTAGCTTGTTTTATGCGGAGTCACCTAGTGCAG | 8740 fluorescence intensity (a.u.)
AGTTCCTTACCTTCGTCTCCCGAGATATTCACTTTCTTATCGGAGTCACCTAGTGCAG | 9710 fluorescence intensity (a.u.)
AACTGTTGCGTTTACATGGCCCCACATCGCTCCGCGTCATCGGAGTCACCTAGTGCAG | 8610 fluorescence intensity (a.u.)
AGTGTACCATAACTACTTTCAGTTTATTTTGTTCTTTTTACGGAGTCACCTAGTGCAG | 8790 fluorescence intensity (a.u.)
GCTATCGATCATCAAGCTTTCTACCCCGACCGACGAGGAACGGAGTCACCTAGTGCAG | 10800 fluorescence intensity (a.u.)
TCCTTCTTGCGTAATCCTGCAGATTGATCCTGAAATTTATCGGAGTCACCTAGTGCAG | 8440 fluorescence intensity (a.u.)
TTGTTGTTGTTGCTTATCATCTTGTTAACACAGTGCTGTTCGGAGTCACCTAGTGCAG | 10900 fluorescence intensity (a.u.)
GCTTGCATCGTCTTGAAAAAAGTCTATTTTATATATTTTTCGGAGTCACCTAGTGCAG | 8180 fluorescence intensity (a.u.)
ACCTACGCCAGCCACCACGACCATCCATCCTCTGCTGCACCGGAGTCACCTAGTGCAG | 8390 fluorescence intensity (a.u.)
TCAACATGTCCTTTATAGTGGTACAGTTTCTCGCTCATGTCGGAGTCACCTAGTGCAG | 8570 fluorescence intensity (a.u.)
TTACCATGCCACTCTTGACTTCTCGTTTCATTTGCACTGTCGGAGTCACCTAGTGCAG | 12700 fluorescence intensity (a.u.)
TACTTTTCTTATCCTTTTGCCTGCCATCTGTGCATGGAATCGGAGTCACCTAGTGCAG | 9160 fluorescence intensity (a.u.)
TCCTACCTATATTAGGCTCCCATTTGTGTTCCCATTTGCCCGGAGTCACCTAGTGCAG | 9030 fluorescence intensity (a.u.)
GCCTAGATGCTCGTTTTTTTTTTCTCTTTTGTTTGTCACGCGGAGTCACCTAGTGCAG | 8750 fluorescence intensity (a.u.)
CATTGCCAGCCTCGTCCCAATCCCACCACCTGCGCCACGCCGGAGTCACCTAGTGCAG | 8760 fluorescence intensity (a.u.)
AATTTTTATTCACCCACCCTAGCACAAATCTTCAACATCTCGGAGTCACCTAGTGCAG | 9570 fluorescence intensity (a.u.)

Pulled one by one from above (three):
Sequence | binding signal
TTACCATGCCACTCTTGACTTCTCGTTTCATTTGCACTGTCGGAGTCACCTAGTGCAG | 12700 fluorescence intensity (a.u.)
GGGTTCATTAATTTTCTTTTTACCTCATAGGGGAAACAAACGGAGTCACCTAGTGCAG | 8410 fluorescence intensity (a.u.)
CGGGGCGGCTGGCTTGACGCGTCATCTTCCCCGCGAAAATCGGAGTCACCTAGTGCAG | 14000 fluorescence intensity (a.u.)

Going on with the list.

Sequence | binding signal
ATCTCATTGTTTGTTACCAAATCCGGTTTACACCATTTTACGGAGTCACCTAGTGCAG | 8180 fluorescence intensity (a.u.)
CGTCATCTTCTTCCTTCAGCTCACGCTGACCAAACACCATCGGAGTCACCTAGTGCAG | 8620 fluorescence intensity (a.u.)
ATGTTTCAAGTTTATTTTTGCTGCTCAGATTTAGATGATACGGAGTCACCTAGTGCAG | 8470 fluorescence intensity (a.u.)
ACCAGCGTTGACTCGTCGTTTCCTACCGTGTCACTATATTCGGAGTCACCTAGTGCAG | 15600 fluorescence intensity (a.u.)
CTAGTCGAGTCCATGCCCATTCATCTCTTCACATTGCAAACGGAGTCACCTAGTGCAG | 9660 fluorescence intensity (a.u.)
AAGCACATCGCCGTCCTCCACCCGCCCGTCGCATCCGCCTCGGAGTCACCTAGTGCAG | 8080 fluorescence intensity (a.u.)
AGTTTCTTTATATCCCATGGCGTTTGCCTCGTTTGTCGTACGGAGTCACCTAGTGCAG | 9900 fluorescence intensity (a.u.)
TCTGTTTATAATATCTGGGGTCATGTGATTCGGGTTACTACGGAGTCACCTAGTGCAG | 9160 fluorescence intensity (a.u.)
GGGCAGTGCTTTATACCACCAATGACATCCAGGTTCATGTCGGAGTCACCTAGTGCAG | 8610 fluorescence intensity (a.u.)
ACTTCTATTGGCCGTTCGACACGCGAAAACCAACCCAATGCGGAGTCACCTAGTGCAG | 8110 fluorescence intensity (a.u.)
GGGCCATAATTGTTTCAATTTCAGTGTAATCTATTGGATTCGGAGTCACCTAGTGCAG | 8120 fluorescence intensity (a.u.)
TTCCCTTTTCTTCCCGAACGGCGGTGGTGGTGGGCTTAGTCGGAGTCACCTAGTGCAG | 8070 fluorescence intensity (a.u.)
TCTATCTATTGAGTTGCCTTTTGATTTGTCAACCATACATCGGAGTCACCTAGTGCAG | 9560 fluorescence intensity (a.u.)
AATTTTCTCAACGCCGCACTGGTCCATCACTCCAAGGTCACGGAGTCACCTAGTGCAG | 8930 fluorescence intensity (a.u.)
AGTGCTGGAGGAGGGAGGCGGGGAGGGGAGCCATCAGCCACGGAGTCACCTAGTGCAG | 17300 fluorescence intensity (a.u.)
TGGCTAGTTTGGCCGGCGCGCGCGGGGAGGGAGGGAGGGACGGAGTCACCTAGTGCAG | 11700 fluorescence intensity (a.u.)
CACCACGTCTCGCGCCGCAGCGTATGCACACCTCCTCAGCCGGAGTCACCTAGTGCAG | 10000 fluorescence intensity (a.u.)
CCAGCCTCCACTGTGCTCCTCGTGTCCGCCGTTCTGATCTCGGAGTCACCTAGTGCAG | 11200 fluorescence intensity (a.u.)
ATTCCCGGCCATGTTCTTCAATTCCTGTCCGGCTCAGTACCGGAGTCACCTAGTGCAG | 8430 fluorescence intensity (a.u.)
ACTTTCTTTTTGGGCCTGAAACCACGACGGCCCTTTGTTCCGGAGTCACCTAGTGCAG | 8760 fluorescence intensity (a.u.)
GGTGGGTGTGTGCTTGTTTCGGCGTGTGATTTGGGCGGAGCGGAGTCACCTAGTGCAG | 16500 fluorescence intensity (a.u.)
TCACCCTGTCCTCGTCACGTCCCATTTTACATCCACCACCCGGAGTCACCTAGTGCAG | 9210 fluorescence intensity (a.u.)
TGGTGGTGGCTGGCGGCGGGGAGGATGAGAACGAGAGAAGCGGAGTCACCTAGTGCAG | 9940 fluorescence intensity (a.u.)
CTTTCACTATCAGCACAAGACTTGTCTGCCAATATCTCATCGGAGTCACCTAGTGCAG | 8160 fluorescence intensity (a.u.)
CACTATCTCATCTGCGGTGTAGAGTTGACCTCTCTAATTTCGGAGTCACCTAGTGCAG | 9230 fluorescence intensity (a.u.)
AAACCTCACCATCATCGACCCACTTGTTCCTAGCGATCTACGGAGTCACCTAGTGCAG | 9980 fluorescence intensity (a.u.)
TCTCCTGGTTTTGTGTGTTAGCGCTGTCAGTGTGTGGGTGCGGAGTCACCTAGTGCAG | 8120 fluorescence intensity (a.u.)
